In PubChem BioAssay AID248 (DTP/NCI, 2004):
The list shows only some results of the screen, not a fair sample: it gathers tests that were run many times, whatever their T/C, doses with no T/C, and many T/C values between a quarter and a half above the control. Further doses and runs are listed elsewhere. T/C is the treated group as % of the vehicle group. Some entries give survivors of the animals treated and no T/C: the source holds a T/C of zero for them, seemingly a mark for toxic or unscored doses. Some survivor counts are full or nearly so, which does not show that the dose was tolerated: the source hardly ever lists a survival T/C far under the control, and the zero likely stands for such cases as well. Counts of survivors are from the toxicity check (mostly the fifth day) where no day follows; animals may have died later. Schedules are NCI's codes, read here as Q, the interval in days (D) or hours (H), X, the number of doses. Some schedule codes hold Z or #, which are not explained here. Some entries were tested several times; the values are given in rising order. Some molecules as drawn cover several salts, stereoisomers or complexes of the source; a dose is that of the sample tested. Where survival is the endpoint, the PubChem record calls one and a half times the control and up active, and a quarter to a half above the control has no call in these data; cut-offs in other NCI protocols can differ. Signs of the kind (2×) stand for listed records that agree. Some T/C values carry the count of animals alive at the toxicity check (mostly the fifth day); where none is given, no animal had died by that day.

System: L1210 leukemia ip in BDF1 mice, survival T/C
Test: NCI In Vivo Anticancer Drug Screen. Data for tumor model L1210 Leukemia (intraperitoneal) in B6D2F1 (BDF1) mice
Settings: T/C endpoint: mean survival time, higher T/C = longer survival
[1] = dose: 12.5 mg/kg/injection, schedule: Q01DX009 (ip), vehicle: saline
[2] = dose: 25.0 mg/kg/injection, schedule: Q01DX009 (ip), vehicle: saline
[3] = dose: 50.0 mg/kg/injection, schedule: Q01DX009 (ip), vehicle: saline
[4] = dose: 100.0 mg/kg/injection, schedule: Q04DX003 (ip), vehicle: Klucel (hydroxypropylcellulose) (HPC)
[5] = dose: 300.0 mg/kg/injection, schedule: Q01DX001 (ip), vehicle: saline
[6] = dose: 200.0 mg/kg/injection, schedule: Q01DX001 (ip), vehicle: saline
[7] = dose: 400.0 mg/kg/injection, schedule: Q01DX001 (ip), vehicle: saline

## CCN(CC)CCNc1ccc(C)c2sc3ccccc3c(=O)c12
dose: 6.25 mg/kg/injection, schedule: Q01DX Z (ip), vehicle: methylcellulose (MC)
  survivor count: 6 of 6
[1]
  T/C: 106, 109, 115, 118 % of control
dose: 12.5 mg/kg/injection, schedule: Q01DX Z (ip), vehicle: methylcellulose (MC)
  survivor count: 6 of 6
dose: 24.0 mg/kg/injection, schedule: Q01DX006 (iv), vehicle: saline
  survivor count: 3 of 6
[2]
  T/C: 106 (2×), 109, 122 [5 of 6 alive], 124, 148 % of control
dose: 25.0 mg/kg/injection, schedule: Q01DX Z (ip), vehicle: methylcellulose (MC)
  survivor count: 0 of 6 and 6 of 6
dose: 30.0 mg/kg/injection, schedule: Q01DX Z (oral), vehicle: carboxymethylcellulose (CMC)
  T/C: 127 % of control
dose: 48.0 mg/kg/injection, schedule: Q01DX006 (iv), vehicle: saline
  survivor count: 0 of 6
dose: 48.0 mg/kg/injection, schedule: Q01DX Z (ip), vehicle: saline
  T/C: 129 % of control
dose: 50.0 mg/kg/injection, schedule: Q01DX005 (ip), vehicle: Klucel (hydroxypropylcellulose) (HPC)
  T/C: 126 % of control
[3]
  T/C: 107, 121, 130, 132, 140, 143 % of control [5 of 6 alive]
dose: 50.0 mg/kg/injection, schedule: Q01DX010 (ip), vehicle: saline
  T/C: 136 % of control (2×)
dose: 50.0 mg/kg/injection, schedule: Q01DX Z (ip), vehicle: methylcellulose (MC)
  survivor count: 0 of 6 and 6 of 6
dose: 50.0 mg/kg/injection, schedule: Q01DX Z (oral), vehicle: carboxymethylcellulose (CMC)
  T/C: 143 % of control
dose: 50.0 mg/kg/injection, schedule: Q01DX Z (oral), vehicle: saline
  T/C: 125 % of control
dose: 50.0 mg/kg/injection, schedule: Q04DX003 (ip), vehicle: saline
  survivor count: 6 of 6
dose: 60.0 mg/kg/injection, schedule: Q01DX Z (ip), vehicle: carboxymethylcellulose (CMC)
  T/C: 134 % of control
dose: 64.7 mg/kg/injection, schedule: Q01DX Z (ip), vehicle: carboxymethylcellulose (CMC)
  T/C: 137, 141, 147 % of control
dose: 80.0 mg/kg/injection, schedule: Q01DX Z (ip), vehicle: carboxymethylcellulose (CMC)
  T/C: 132 and 139 % of control
dose: 87.0 mg/kg/injection, schedule: Q01DX Z (ip), vehicle: methylcellulose (MC)
  T/C: 147 % of control
dose: 90.0 mg/kg/injection, schedule: Q01DX Z (ip), vehicle: carboxymethylcellulose (CMC)
  T/C: 134 % of control [5 of 6 alive]
dose: 90.0 mg/kg/injection, schedule: Q01DX Z (ip), vehicle: other
  T/C: 147 % of control
dose: 96.0 mg/kg/injection, schedule: Q01DX006 (iv), vehicle: saline
  survivor count: 0 of 6
dose: 96.0 mg/kg/injection, schedule: Q01DX Z (sc), vehicle: carboxymethylcellulose (CMC)
  T/C: 141 % of control
dose: 100.0 mg/kg/injection, schedule: Q01DX005 (ip), vehicle: Klucel (hydroxypropylcellulose) (HPC)
  T/C: 133 and 147 % of control
dose: 100.0 mg/kg/injection, schedule: Q01DX009 (ip), vehicle: saline
  T/C: 89, 91 [5 of 6 alive], 131 [5 of 6 alive], 144, 155, 161 % of control
dose: 100.0 mg/kg/injection, schedule: Q01DX Z (ip), vehicle: carboxymethylcellulose (CMC)
  T/C: 138 % of control
dose: 100.0 mg/kg/injection, schedule: Q01DX Z (ip), vehicle: methylcellulose (MC)
  survivor count: 0 of 6
dose: 100.0 mg/kg/injection, schedule: Q01DX Z (oral), vehicle: saline
  T/C: 143 % of control
[4]
  T/C: 134 and 138 % of control
dose: 100.0 mg/kg/injection, schedule: Q04DX003 (ip), vehicle: water
  T/C: 140 % of control
dose: 107.05 mg/kg/injection, schedule: Q01DX Z (ip), vehicle: carboxymethylcellulose (CMC)
  T/C: 125 % of control
dose: 130.0 mg/kg/injection, schedule: Q01DX Z (ip), vehicle: methylcellulose (MC)
  T/C: 131 % of control
dose: 140.0 mg/kg/injection, schedule: Q01DX Z (im), vehicle: carboxymethylcellulose (CMC)
  T/C: 132 % of control
dose: 140.0 mg/kg/injection, schedule: Q01DX Z (ip), vehicle: carboxymethylcellulose (CMC)
  survivor count: 6 of 6
dose: 200.0 mg/kg/injection, schedule: Q01DX Z (ip), vehicle: carboxymethylcellulose (CMC)
  survivor count: 5 of 6
dose: 200.0 mg/kg/injection, schedule: Q04DX003 (ip), vehicle: saline
  T/C: 126 % of control
dose: 200.0 mg/kg/injection, schedule: Q04DX003 (ip), vehicle: water
  T/C: 137 % of control
dose: 215.0 mg/kg/injection, schedule: Q01DX Z (ip), vehicle: carboxymethylcellulose (CMC)
  survivor count: 6 of 6
dose: 270.0 mg/kg/injection, schedule: Q01DX Z (ip), vehicle: other
  survivor count: 3 of 6
dose: 300.0 mg/kg/injection, schedule: Q01DX001 (ip), vehicle: Klucel (hydroxypropylcellulose) (HPC)
  T/C: 145 % of control
[5]
  T/C: 136 % of control [5 of 6 alive]
dose: 320.0 mg/kg/injection, schedule: Q01DX Z (ip), vehicle: carboxymethylcellulose (CMC)
  survivor count: 1 of 6
dose: 320.0 mg/kg/injection, schedule: Q01DX Z (sc), vehicle: carboxymethylcellulose (CMC)
  survivor count: 6 of 6
dose: 330.0 mg/kg/injection, schedule: Q01DX001 (ip), vehicle: water
  survivor count: 0 of 6
dose: 400.0 mg/kg/injection, schedule: Q01DX Z (oral), vehicle: saline
  survivor count: 6 of 6
dose: 480.0 mg/kg/injection, schedule: Q01DX Z (sc), vehicle: carboxymethylcellulose (CMC)
  survivor count: 6 of 6
dose: 495.0 mg/kg/injection, schedule: Q01DX001 (ip), vehicle: water
  survivor count: 0 of 6
dose: 600.0 mg/kg/injection, schedule: Q01DX001 (ip), vehicle: Klucel (hydroxypropylcellulose) (HPC)
  survivor count: 0 of 6
dose: 600.0 mg/kg/injection, schedule: Q01DX001 (ip), vehicle: saline
  survivor count: 3 of 6
dose: 600.0 mg/kg/injection, schedule: Q01DX001 (ip), vehicle: water
  survivor count: 1 of 6
dose: 742.0 mg/kg/injection, schedule: Q01DX001 (ip), vehicle: water
  survivor count: 0 of 6

## NC(=O)c1ccc[n+](Cc2c(Cl)cccc2Cl)c1
[1]
  survivor count: 3 of 6
[2]
  survivor count: 0 of 6
[3]
  survivor count: 0 of 6

## CCCC[N+](C)(CC(C)C)C1CCCCCCC1 (configuration not stated)
dose: 150.0 mg/kg/injection, schedule: Q01DX001 (ip), vehicle: carboxymethylcellulose (CMC)
  survivor count: 3 of 6
dose: 300.0 mg/kg/injection, schedule: Q01DX001 (ip), vehicle: carboxymethylcellulose (CMC)
  survivor count: 2 of 6
[5]
  survivor count: 0 of 6

## CN(C)N=C1CCC(=NN(C)C)CC1
dose: 400.0 mg/kg/injection, schedule: Q04DX003 (ip), vehicle: saline
  survivor count: 0 of 6

## Nc1ccc(Nc2cc(S(=O)(=O)O)c(N)c3c2C(=O)c2ccccc2C3=O)cc1
[6]
  survivor count: 3 of 6

## COc1cc(/C=N/NC(=O)CCCCCCCCC(=O)N/N=C/c2ccc(O)c(OC)c2)ccc1O
dose: 400.0 mg/kg/injection, schedule: Q04DX002 (ip), vehicle: saline with Tween-80
  survivor count: 3 of 6

## Cc1cc(C)c2nc(-c3ccc(F)cc3)cc(C(=O)O)c2c1
[7]
  survivor count: 1 of 6

## CN(C)C=Nc1cc2c3c(c1)CCCN3CCC2
dose: 50.0 mg/kg/injection, schedule: Q01DX001 (ip), vehicle: saline
  survivor count: 2 of 6
dose: 100.0 mg/kg/injection, schedule: Q01DX001 (ip), vehicle: saline
  survivor count: 0 of 6
[6]
  survivor count: 1 of 6
[7]
  survivor count: 1 of 6

## Nc1ccc2nc(N)nc(N)c2c1
[4]
  T/C: 132 % of control [5 of 6 alive]
dose: 150.0 mg/kg/injection, schedule: Q01DX009 (ip), vehicle: Klucel (hydroxypropylcellulose) (HPC)
  survivor count: 0 of 6
dose: 200.0 mg/kg/injection, schedule: Q04DX003 (ip), vehicle: Klucel (hydroxypropylcellulose) (HPC)
  survivor count: 0 of 6
dose: 400.0 mg/kg/injection, schedule: Q04DX003 (ip), vehicle: Klucel (hydroxypropylcellulose) (HPC)
  survivor count: 1 of 6

## COc1ccc(OC)c(NC(=O)NNc2c([N+](=O)[O-])cc(C(F)(F)F)cc2[N+](=O)[O-])c1
dose: 400.0 mg/kg/injection, schedule: Q01DX009 (ip), vehicle: other
  survivor count: 0 of 6

## N#CC(C#N)=Cc1cc(Cl)ccc1O
[7]
  survivor count: 1 of 4
